Substitutions are numbered along the chain they refer to. Results are given in words; binding and its absence hold for the method and conditions named. In cells and extracts the contact can be indirect. Some entries that bind do so weakly or less than the wild type. For part of these data: Sequences can lack the tags named with a protein.
Key:
[1] = biological target: T1, Flag-tagged CACNG1 (N43A/N80A) (UniProt O70578); assay: co-IP; cells transfected with plasmids for 48 h (MIN6 and 293T), lysate incubated overnight at 4 °C with bead-linked antibody to the bait protein, blots for Flag and GFP
T1 sequence: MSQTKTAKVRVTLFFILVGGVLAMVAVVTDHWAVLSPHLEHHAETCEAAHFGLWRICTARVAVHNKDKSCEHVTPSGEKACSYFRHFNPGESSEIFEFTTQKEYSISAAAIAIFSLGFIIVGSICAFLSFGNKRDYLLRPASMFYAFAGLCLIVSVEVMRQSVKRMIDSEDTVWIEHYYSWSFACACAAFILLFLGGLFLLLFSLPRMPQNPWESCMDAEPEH

Amino acid sequences for entries named in this document (tags omitted).
UniProt P62956: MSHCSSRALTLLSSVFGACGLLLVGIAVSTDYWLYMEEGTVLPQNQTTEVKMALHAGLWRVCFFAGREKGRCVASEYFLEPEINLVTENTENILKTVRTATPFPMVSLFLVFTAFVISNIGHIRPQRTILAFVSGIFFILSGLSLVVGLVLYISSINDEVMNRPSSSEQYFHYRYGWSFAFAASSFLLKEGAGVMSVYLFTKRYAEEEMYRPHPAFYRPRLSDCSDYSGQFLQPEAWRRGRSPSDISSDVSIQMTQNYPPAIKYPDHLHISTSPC
UniProt P16110: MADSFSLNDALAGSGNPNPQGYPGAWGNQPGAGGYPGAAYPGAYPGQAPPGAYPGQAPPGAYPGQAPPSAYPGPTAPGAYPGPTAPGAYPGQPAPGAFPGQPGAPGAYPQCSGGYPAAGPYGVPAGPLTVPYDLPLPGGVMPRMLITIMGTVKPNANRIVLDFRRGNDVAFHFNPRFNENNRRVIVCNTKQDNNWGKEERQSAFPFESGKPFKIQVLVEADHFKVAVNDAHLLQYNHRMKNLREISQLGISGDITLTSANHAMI

CACNG7 = CACNG7 (UniProt P62956); assay: as above
CACNG4 = biological target: T2, CACNG4 (UniProt Q9JJV4); assay: as above
T2 sequence: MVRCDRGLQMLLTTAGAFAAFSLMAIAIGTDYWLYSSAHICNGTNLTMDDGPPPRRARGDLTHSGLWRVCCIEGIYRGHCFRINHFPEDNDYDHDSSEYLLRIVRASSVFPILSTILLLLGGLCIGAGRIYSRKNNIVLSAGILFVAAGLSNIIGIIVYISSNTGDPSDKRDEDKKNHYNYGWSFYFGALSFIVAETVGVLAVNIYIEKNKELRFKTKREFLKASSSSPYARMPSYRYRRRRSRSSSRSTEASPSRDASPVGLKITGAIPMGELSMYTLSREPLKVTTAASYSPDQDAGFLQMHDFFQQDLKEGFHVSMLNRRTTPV

CACNG2 = biological target: T3, CACNG2 (UniProt O88602); assay: as above
T3 sequence: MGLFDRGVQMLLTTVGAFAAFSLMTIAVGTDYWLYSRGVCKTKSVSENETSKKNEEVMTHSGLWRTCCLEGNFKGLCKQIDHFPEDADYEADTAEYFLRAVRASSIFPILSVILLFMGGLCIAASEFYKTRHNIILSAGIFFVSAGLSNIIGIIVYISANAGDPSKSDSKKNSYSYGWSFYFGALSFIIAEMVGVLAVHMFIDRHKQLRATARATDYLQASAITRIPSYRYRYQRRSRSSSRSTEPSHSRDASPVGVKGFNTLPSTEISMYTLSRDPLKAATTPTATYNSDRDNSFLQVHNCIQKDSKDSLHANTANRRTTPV

CACNG5 = biological target: T4, CACNG5 (UniProt Q8VHW4); assay: as above
T4 sequence: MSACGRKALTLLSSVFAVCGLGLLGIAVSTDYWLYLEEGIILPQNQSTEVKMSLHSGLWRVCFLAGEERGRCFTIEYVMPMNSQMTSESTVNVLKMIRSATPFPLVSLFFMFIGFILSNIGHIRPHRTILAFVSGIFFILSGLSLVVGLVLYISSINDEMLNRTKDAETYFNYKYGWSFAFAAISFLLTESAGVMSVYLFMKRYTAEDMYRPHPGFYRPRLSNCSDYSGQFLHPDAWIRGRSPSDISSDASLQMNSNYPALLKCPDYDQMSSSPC

[2] = biological target: T5, Flag-tagged CACNG1 (N80A) (UniProt O70578); assay: as above
T5 sequence: T1 sequence with A43N

[3] = biological target: T6, Flag-tagged CACNG1 (N43A) (UniProt O70578); assay: as above
T6 sequence: T1 sequence with A80N

CACNG3 = biological target: T7, CACNG3 (UniProt Q9JJV5); assay: as above
T7 sequence: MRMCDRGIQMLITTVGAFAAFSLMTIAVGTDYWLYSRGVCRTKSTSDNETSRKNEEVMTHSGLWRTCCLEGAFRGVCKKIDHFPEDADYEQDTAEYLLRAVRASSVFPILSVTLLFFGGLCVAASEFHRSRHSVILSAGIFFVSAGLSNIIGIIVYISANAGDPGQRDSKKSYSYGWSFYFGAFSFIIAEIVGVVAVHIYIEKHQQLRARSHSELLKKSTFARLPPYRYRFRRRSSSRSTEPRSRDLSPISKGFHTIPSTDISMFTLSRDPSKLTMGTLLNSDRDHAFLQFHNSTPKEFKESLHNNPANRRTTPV

[4] = biological target: T8, CACNG1, endogenous (mouse (endogenous in MIN6)) (UniProt O70578); assay: co-IP; endogenous proteins in the MIN6 cell and macrophage coculture system (n = 1)
T8 sequence: T1 sequence with A43N, A80N

Row | Substance | binding [1] | binding (CACNG7) | binding (CACNG4) | binding (CACNG2) | binding (CACNG5) | binding [2] | binding [3] | binding (CACNG3) | binding [4]
1 | GFP-tagged Gal3 (galectin-3) (from UniProt P16110 1-264) | binds weakly | binds weakly | binds weakly | binds weakly | binds weakly | binds | binds | binds weakly | 
2 | Galectin-3 (Gal3), endogenous (from UniProt P16110 1-264) |  |  |  |  |  |  |  |  | binds
